According to patent publication US5118599A, “Yellow couplers for photographic elements and processes” (Eastman Kodak Company, priority 1991, dated 1992):

Assay: Photographic single layer element: Dmax, Dmin, gamma and λmax after color development
Conditions: for γ: maximum slope between two adjacent density points
Description: Single layer photographic elements were prepared by coating a cellulose acetate-butyrate film support with a photosensitive layer containing a silver bromide emulsion at 70.2 and 140.4 mg/ft^2 for 2 and 4 equivalent couplers, respectively, gelatin at 350 mg/ft^2 and an image coupler (0.20 mmol/ft^2) dispersed in half its weight of dibutyl phthalate. The photosensitive layer was overcoated with a layer containing gelatin at 250 mg/ft^2 and bis vinylsulfonyl methyl ether hardener at 2.0 weight percent based on total gel.
Samples of each element were exposed imagewise through a stepped density test object and processed at 100° F. employing the following color developing solution, then stopped with a low pH bath, bleached, fixed, washed and dried to produce stepped colored images.
Color Developer Solution (2')
4-Amino-3-methyl-N-ethyl 3.55 g
Water to make 1 liter, pH 10.0
Densitometry in the appropriate color maximum density (Dmin and Dmax) and gamma defined as the maximum slope between any two adjacent density points.

[1] = Table 4, color developer pH 10.0

Compound: CCC(C)(C)c1ccc(OCCCC(=O)Nc2ccc(OC)c(NC(=O)C(Oc3ccc(S(=O)(=O)c4ccc(O)cc4)cc3)C(=O)C3(C)COCOC3)c2)c(C(C)(C)CC)c1 [Coupler D-14]
- Dmax [1]: 2.66
- Dmin [1]: 0.07
- γ [1]: 1.27

Compound: CCCCCCCCCCCCCCCCS(=O)(=O)Nc1ccc(Cl)c(NC(=O)CC(=O)C2(C)COCOC2)c1 [Coupler D-4]
- Dmax (Table 3, D99, pH 10.0, KS-2): 2.95
- Dmin (Table 3, D99, pH 10.0, KS-2): 0.06
- γ (Table 3, D99, pH 10.0, KS-2): 1.10
- Dmax [1]: 2.95
- Dmin [1]: 0.06
- γ [1]: 1.10

Compound: CCCCCCCCCCCCCCCCS(=O)(=O)Nc1ccc(Cl)c(NC(=O)CC(=O)C(C)(C)C)c1 [P-V, reference compound]
- Dmax (Table 3, D99, pH 10.0, KS-2): 1.11
- Dmin (Table 3, D99, pH 10.0, KS-2): 0.06
- γ (Table 3, D99, pH 10.0, KS-2): 0.43
- Dmax [1]: 1.10
- Dmin [1]: 0.06
- γ [1]: 0.43

Compound: CCC(C)(C)c1ccc(OCCCC(=O)Nc2ccc(OC)c(NC(=O)CC(=O)C3(C)COCOC3)c2)c(C(C)(C)CC)c1 [Coupler D-3]
- Dmax [1]: 2.84
- Dmin [1]: 0.06
- γ [1]: 0.80

Compound: CCCCCCCCCCCCCCCCS(=O)(=O)Nc1ccc(OC)c(NC(=O)CC(=O)C2(C)COC(C)(C)OC2)c1 [Coupler D-2]
- Dmax (Table 3, D99, pH 10.0, KS-2): 1.92
- Dmin (Table 3, D99, pH 10.0, KS-2): 0.06
- γ (Table 3, D99, pH 10.0, KS-2): 0.60

Compound: CCC(C)(C)c1ccc(OCCCC(=O)Nc2ccc(C)c(NC(=O)C(Oc3ccc(S(=O)(=O)c4ccc(O)cc4)cc3)C(=O)C3(C)COCOC3)c2)c(C(C)(C)CC)c1 [Coupler D-13]
- Dmax [1]: 2.55
- Dmin [1]: 0.06
- γ [1]: 0.90

Compound: CCOC1C(=O)N(C(C(=O)Nc2cc(NC(=O)CCCOc3ccc(C(C)(C)CC)cc3C(C)(C)CC)ccc2OC)C(=O)C2(C)COC(C)(C)OC2)C(=O)N1Cc1ccccc1 [Coupler D-8]
- Dmax [1]: 2.18
- Dmin [1]: 0.06
- γ [1]: 0.80

Compound: CCCCCCCCCCCCCCCCS(=O)(=O)Nc1ccc(Cl)c(NC(=O)C(Oc2ccc(S(=O)(=O)c3ccc(OCc4ccccc4)cc3)cc2)C(=O)C(C)(C)C)c1 (stereo not drawn) [P-I, reference compound]
- Dmax [1]: 2.52
- Dmin [1]: 0.06
- γ [1]: 0.77

Compound: CCC(C)(C)c1ccc(OCCCC(=O)Nc2ccc(Cl)c(NC(=O)CC(=O)C3(C)COCOC3)c2)c(C(C)(C)CC)c1 [Coupler D-5]
- Dmax (Table 3, D99, pH 10.0, KS-2): 2.46
- Dmin (Table 3, D99, pH 10.0, KS-2): 0.05
- γ (Table 3, D99, pH 10.0, KS-2): 0.83
- Dmax [1]: 2.46
- Dmin [1]: 0.05
- γ [1]: 0.83

Compound: CCC(C)(C)c1ccc(OCCCC(=O)Nc2cccc(NC(=O)C(Oc3ccc(S(=O)(=O)c4ccc(O)cc4)cc3)C(=O)C3(C)COCOC3)c2)c(C(C)(C)CC)c1 [Coupler D-12]
- Dmax [1]: 2.51
- Dmin [1]: 0.06
- γ [1]: 0.90

Compound: CCC(C)(C)c1ccc(OCCCC(=O)Nc2ccc(Cl)c(NC(=O)C(Oc3ccc(S(=O)(=O)c4ccc(O)cc4)cc3)C(=O)C3(C)COCOC3)c2)c(C(C)(C)CC)c1 [Coupler D-10]
- Dmax [1]: 3.07
- Dmin [1]: 0.06
- γ [1]: 1.13

Compound: CCC(C)(C)c1ccc(OCCCC(=O)Nc2ccc(Cl)c(NC(=O)CC(=O)C(C)(C)C)c2)c(C(C)(C)CC)c1 [P-VI, reference compound]
- Dmax (Table 3, D99, pH 10.0, KS-2): 0.25
- Dmin (Table 3, D99, pH 10.0, KS-2): 0.05
- γ (Table 3, D99, pH 10.0, KS-2): 0.10
- Dmax [1]: 0.25
- Dmin [1]: 0.05
- γ [1]: 0.10

Compound: CCC(C)(C)c1ccc(OCCCC(=O)Nc2ccc(Cl)c(NC(=O)C(Oc3ccc(S(=O)(=O)c4ccc(OCc5ccccc5)cc4)cc3)C(=O)C(C)(C)C)c2)c(C(C)(C)CC)c1 (stereo not drawn) [P-III, reference compound]
- Dmax [1]: 1.06
- Dmin [1]: 0.05
- γ [1]: 0.40

Compound: CCC(C)(C)c1ccc(OCCCC(=O)Nc2ccc(OC)c(NC(=O)C(Oc3ccc(S(=O)(=O)c4ccc(O)cc4)cc3)C(=O)C3(C)COC(C)(C)OC3)c2)c(C(C)(C)CC)c1 [Coupler D-7]
- Dmax [1]: 2.51
- Dmin [1]: 0.05
- γ [1]: 0.83
